{"source": "the supplement of paper PMC8728848", "binders": {"B1": {"name": "Epa20 (Candida glabrata) (protein)", "chain": "MGSSHHHHHHSSGLVPRGSHMASSNIPNNYPLGCSNKYSGHLPGLKMELYSYNYVNPRHPDPQNPGKLDQLYDPNLLGTYECFDSSYKDINYPRVGYKSKTLIGRSDGVSGILNFNFVPPWGCMPQKGQLPPAYNFKSNITLSNFTMILFGYFKPKISGNHIFSLHGDDLIYLNFGAGNAFDCCRQESSADNFGNYQAFSLWGINWEKKTLTVYLDMNTYYPIRIFYNNRDYQAIFNFSFKTEFDSSPVIDFQDYFFFLRDIDGGCPGEV"}}, "assay_in_all_cases": "glycan array binding signal (z-score within array); higher = stronger binding", "conditions_in_all_cases": "glycan notation: IUPAC condensed, linker removed", "key": {"[1]": {"molecular_target": "Gal(b1-3)GlcNAc(b1-3)Gal(b1-4)GlcNAc(b1-2)Man(a1-3)[Gal(b1-3)GlcNAc(b1-3)Gal(b1-4)GlcNAc(b1-2)Man(a1-6)]Man(b1-4)GlcNAc(b1-4)GlcNAc", "how_it_was_run": "(§1)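 From the Consortium for Functional Glycomics database, 3228 arrays were curated, keeping only those whose protein sequence was available. Binding is given as a within-array Z-score averaged across arrays sharing a protein sequence and across linkers. Negative Z-scores can be read as non-binding.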"}, "[2]": {"molecular_target": "Gal(b1-3)GlcNAc(b1-3)Gal(b1-4)GlcNAc(b1-2)[Gal(b1-3)GlcNAc(b1-3)Gal(b1-4)GlcNAc(b1-6)]Man(a1-6)[Gal(b1-3)GlcNAc(b1-3)Gal(b1-4)GlcNAc(b1-2)Man(a1-3)]Man(b1-4)GlcNAc(b1-4)[Fuc(a1-6)]GlcNAc", "how_it_was_run": "as §1"}, "[3]": {"molecular_target": "Gal(b1-3)GlcNAc(b1-3)Gal(b1-4)GlcNAc(b1-3)Gal(b1-4)GlcNAc(b1-2)[Gal(b1-3)GlcNAc(b1-3)Gal(b1-4)GlcNAc(b1-3)Gal(b1-4)GlcNAc(b1-6)]Man(a1-6)[Gal(b1-3)GlcNAc(b1-3)Gal(b1-4)GlcNAc(b1-3)Gal(b1-4)GlcNAc(b1-2)Man(a1-3)]Man(b1-4)GlcNAc(b1-4)[Fuc(a1-6)]GlcNAc", "how_it_was_run": "as §1"}, "[4]": {"molecular_target": "Gal(b1-3)GlcNAc(b1-3)Gal(b1-4)GlcNAc(b1-6)[Gal(b1-3)GlcNAc(b1-3)]Gal(b1-4)Glc", "how_it_was_run": "as §1"}, "[5]": {"molecular_target": "Gal(b1-3)GlcNAc(b1-3)Gal(b1-4)[Fuc(a1-3)]GlcNAc", "how_it_was_run": "as §1"}, "[6]": {"molecular_target": "Gal(b1-3)GlcNAc(b1-3)Gal(b1-4)[Fuc(a1-3)]GlcNAc(b1-6)[Gal(b1-3)GlcNAc(b1-3)]Gal(b1-4)Glc", "how_it_was_run": "as §1"}, "[7]": {"molecular_target": "Gal(b1-3)GlcNAc(b1-3)GalNAc", "how_it_was_run": "as §1"}, "[8]": {"molecular_target": "Gal(b1-3)GlcNAc(b1-6)Gal(b1-4)GlcNAc", "how_it_was_run": "as §1"}, "[9]": {"molecular_target": "Gal(b1-3)GlcNAc(b1-6)GalNAc", "how_it_was_run": "as §1"}, "[10]": {"molecular_target": "Gal(b1-3)GlcNAc(b1-6)[Gal(b1-3)]GalNAc", "how_it_was_run": "as §1"}, "Gal(b1-3)GlcNAc6S": {"molecular_target": "Gal(b1-3)GlcNAc6S", "how_it_was_run": "as §1"}, "[11]": {"molecular_target": "Gal(b1-3)[Fuc(a1-4)]GlcNAc", "how_it_was_run": "as §1"}, "[12]": {"molecular_target": "Gal(b1-3)[Fuc(a1-4)]GlcNAc(b1-2)Man", "how_it_was_run": "as §1"}, "[13]": {"molecular_target": "Gal(b1-3)[Fuc(a1-4)]GlcNAc(b1-2)Man(a1-3)[Gal(b1-3)[Fuc(a1-4)]GlcNAc(b1-2)Man(a1-6)]Man(b1-4)GlcNAc(b1-4)[Fuc(a1-6)]GlcNAc", "how_it_was_run": "as §1"}, "[14]": {"molecular_target": "Gal(b1-3)[Fuc(a1-4)]GlcNAc(b1-3)Gal(b1-3)[Fuc(a1-4)]GlcNAc", "how_it_was_run": "as §1"}, "[15]": {"molecular_target": "Gal(b1-3)[Fuc(a1-4)]GlcNAc(b1-3)Gal(b1-4)[Fuc(a1-3)]GlcNAc", "how_it_was_run": "as §1"}, "[16]": {"molecular_target": "Gal(b1-3)[Fuc(a1-4)]GlcNAc(b1-6)GalNAc", "how_it_was_run": "as §1"}, "[17]": {"molecular_target": "Gal(b1-3)[GlcNAc(b1-6)]GalNAc", "how_it_was_run": "as §1"}, "[18]": {"molecular_target": "Gal(b1-3)[Neu5Ac(a2-6)]GalNAc", "how_it_was_run": "as §1"}, "[19]": {"molecular_target": "Gal(b1-3)[Neu5Ac(a2-6)]GlcNAc(b1-4)Gal(b1-4)Glc", "how_it_was_run": "as §1"}, "[20]": {"molecular_target": "Gal(b1-3)[Neu5Ac(b2-6)]GalNAc", "how_it_was_run": "as §1"}, "Gal(b1-4)Gal": {"molecular_target": "Gal(b1-4)Gal", "how_it_was_run": "as §1"}, "[21]": {"molecular_target": "Gal(b1-4)GalNAc(a1-3)[Fuc(a1-2)]Gal(b1-4)GlcNAc", "how_it_was_run": "as §1"}, "[22]": {"molecular_target": "Gal(b1-4)GalNAc(b1-3)[Fuc(a1-2)]Gal(b1-4)GlcNAc", "how_it_was_run": "as §1"}, "Gal(b1-4)Glc": {"molecular_target": "Gal(b1-4)Glc", "how_it_was_run": "as §1"}, "Gal(b1-4)Glc6S": {"molecular_target": "Gal(b1-4)Glc6S", "how_it_was_run": "as §1"}, "Gal(b1-4)GlcNAc": {"molecular_target": "Gal(b1-4)GlcNAc", "how_it_was_run": "as §1"}, "[23]": {"molecular_target": "Gal(b1-4)GlcNAc(a1-6)Gal(b1-4)GlcNAc", "how_it_was_run": "as §1"}, "Gal(b1-4)GlcNAc(b1-2)Man": {"molecular_target": "Gal(b1-4)GlcNAc(b1-2)Man", "how_it_was_run": "as §1"}, "[24]": {"molecular_target": "Gal(b1-4)GlcNAc(b1-2)Man(a1-3)Man(b1-4)GlcNAc(b1-4)GlcNAc", "how_it_was_run": "as §1"}, "[25]": {"molecular_target": "Gal(b1-4)GlcNAc(b1-2)Man(a1-3)[Gal(b1-4)GlcNAc(b1-2)Man(a1-6)]Man(b1-4)GlcNAc(b1-4)GlcNAc", "how_it_was_run": "as §1"}, "[26]": {"molecular_target": "Gal(b1-4)GlcNAc(b1-2)Man(a1-3)[Gal(b1-4)GlcNAc(b1-2)Man(a1-6)]Man(b1-4)GlcNAc(b1-4)[Fuc(a1-6)]GlcNAc", "how_it_was_run": "as §1"}, "[27]": {"molecular_target": "Gal(b1-4)GlcNAc(b1-2)Man(a1-3)[Gal(b1-4)GlcNAc(b1-2)Man(a1-6)][Gal(b1-4)GlcNAc(b1-4)]Man(b1-4)GlcNAc(b1-4)[Fuc(a1-6)]GlcNAc", "how_it_was_run": "as §1"}, "[28]": {"molecular_target": "Gal(b1-4)GlcNAc(b1-2)Man(a1-3)[Gal(b1-4)GlcNAc(b1-2)Man(a1-6)][GlcNAc(b1-4)]Man(b1-4)GlcNAc(b1-4)[Fuc(a1-6)]GlcNAc", "how_it_was_run": "as §1"}, "[29]": {"molecular_target": "Gal(b1-4)GlcNAc(b1-2)Man(a1-3)[GlcNAc(b1-2)Man(a1-6)]Man(b1-4)GlcNAc(b1-4)GlcNAc", "how_it_was_run": "as §1"}, "[30]": {"molecular_target": "Gal(b1-4)GlcNAc(b1-2)Man(a1-3)[GlcNAc(b1-4)][Gal(b1-4)GlcNAc(b1-2)Man(a1-6)]Man(b1-4)GlcNAc(b1-4)GlcNAc", "how_it_was_run": "as §1"}, "[31]": {"molecular_target": "Gal(b1-4)GlcNAc(b1-2)Man(a1-3)[Man(a1-6)]Man(b1-4)GlcNAc(b1-4)GlcNAc", "how_it_was_run": "as §1"}, "[32]": {"molecular_target": "Gal(b1-4)GlcNAc(b1-2)Man(a1-6)Man(b1-4)GlcNAc(b1-4)GlcNAc", "how_it_was_run": "as §1"}}, "note": "This is one part of the list.", "data": [{"binder": "B1", "values": [{"measurement": "glycan array binding signal (z-score)", "setting": "[1]", "result": -0.166}, {"measurement": "glycan array binding signal (z-score)", "setting": "[2]", "result": 0.537}, {"measurement": "glycan array binding signal (z-score)", "setting": "[3]", "result": 1.27}, {"measurement": "glycan array binding signal (z-score)", "setting": "[4]", "result": -0.164}, {"measurement": "glycan array binding signal (z-score)", "setting": "[5]", "result": -0.421}, {"measurement": "glycan array binding signal (z-score)", "setting": "[6]", "result": -0.689}, {"measurement": "glycan array binding signal (z-score)", "setting": "[7]", "result": -0.065}, {"measurement": "glycan array binding signal (z-score)", "setting": "[8]", "result": -0.042}, {"measurement": "glycan array binding signal (z-score)", "setting": "[9]", "result": -0.413}, {"measurement": "glycan array binding signal (z-score)", "setting": "[10]", "result": -0.353}, {"measurement": "glycan array binding signal (z-score)", "setting": "Gal(b1-3)GlcNAc6S", "result": -0.347}, {"measurement": "glycan array binding signal (z-score)", "setting": "[11]", "result": -0.718}, {"measurement": "glycan array binding signal (z-score)", "setting": "[12]", "result": -0.036}, {"measurement": "glycan array binding signal (z-score)", "setting": "[13]", "result": 0.061}, {"measurement": "glycan array binding signal (z-score)", "setting": "[14]", "result": -0.28}, {"measurement": "glycan array binding signal (z-score)", "setting": "[15]", "result": -0.763}, {"measurement": "glycan array binding signal (z-score)", "setting": "[16]", "result": 0.811}, {"measurement": "glycan array binding signal (z-score)", "setting": "[17]", "result": -0.421}, {"measurement": "glycan array binding signal (z-score)", "setting": "[18]", "result": -0.924}, {"measurement": "glycan array binding signal (z-score)", "setting": "[19]", "result": 0.047}, {"measurement": "glycan array binding signal (z-score)", "setting": "[20]", "result": -0.415}, {"measurement": "glycan array binding signal (z-score)", "setting": "Gal(b1-4)Gal", "result": -0.488}, {"measurement": "glycan array binding signal (z-score)", "setting": "[21]", "result": -0.784}, {"measurement": "glycan array binding signal (z-score)", "setting": "[22]", "result": -0.549}, {"measurement": "glycan array binding signal (z-score)", "setting": "Gal(b1-4)Glc", "result": -0.35}, {"measurement": "glycan array binding signal (z-score)", "setting": "Gal(b1-4)Glc6S", "result": 0.122}, {"measurement": "glycan array binding signal (z-score)", "setting": "Gal(b1-4)GlcNAc", "result": -0.415}, {"measurement": "glycan array binding signal (z-score)", "setting": "[23]", "result": -0.249}, {"measurement": "glycan array binding signal (z-score)", "setting": "Gal(b1-4)GlcNAc(b1-2)Man", "result": -0.114}, {"measurement": "glycan array binding signal (z-score)", "setting": "[24]", "result": -0.254}, {"measurement": "glycan array binding signal (z-score)", "setting": "[25]", "result": -0.534}, {"measurement": "glycan array binding signal (z-score)", "setting": "[26]", "result": 0.292}, {"measurement": "glycan array binding signal (z-score)", "setting": "[27]", "result": -0.489}, {"measurement": "glycan array binding signal (z-score)", "setting": "[28]", "result": -0.546}, {"measurement": "glycan array binding signal (z-score)", "setting": "[29]", "result": -0.442}, {"measurement": "glycan array binding signal (z-score)", "setting": "[30]", "result": -0.56}, {"measurement": "glycan array binding signal (z-score)", "setting": "[31]", "result": 0.168}, {"measurement": "glycan array binding signal (z-score)", "setting": "[32]", "result": -0.205}]}]}
